Measured values reported in publication PMC10176823.
Results are given in words; binding and its absence hold for the method and conditions named. Binding seen in cells or lysates may run through a third protein. Some results given as binding are weak or reduced against the parent protein; the word gives no strength.

Protein sequences, listed by entry. Tags and fused reporters are not part of them.
UniProt Q14676: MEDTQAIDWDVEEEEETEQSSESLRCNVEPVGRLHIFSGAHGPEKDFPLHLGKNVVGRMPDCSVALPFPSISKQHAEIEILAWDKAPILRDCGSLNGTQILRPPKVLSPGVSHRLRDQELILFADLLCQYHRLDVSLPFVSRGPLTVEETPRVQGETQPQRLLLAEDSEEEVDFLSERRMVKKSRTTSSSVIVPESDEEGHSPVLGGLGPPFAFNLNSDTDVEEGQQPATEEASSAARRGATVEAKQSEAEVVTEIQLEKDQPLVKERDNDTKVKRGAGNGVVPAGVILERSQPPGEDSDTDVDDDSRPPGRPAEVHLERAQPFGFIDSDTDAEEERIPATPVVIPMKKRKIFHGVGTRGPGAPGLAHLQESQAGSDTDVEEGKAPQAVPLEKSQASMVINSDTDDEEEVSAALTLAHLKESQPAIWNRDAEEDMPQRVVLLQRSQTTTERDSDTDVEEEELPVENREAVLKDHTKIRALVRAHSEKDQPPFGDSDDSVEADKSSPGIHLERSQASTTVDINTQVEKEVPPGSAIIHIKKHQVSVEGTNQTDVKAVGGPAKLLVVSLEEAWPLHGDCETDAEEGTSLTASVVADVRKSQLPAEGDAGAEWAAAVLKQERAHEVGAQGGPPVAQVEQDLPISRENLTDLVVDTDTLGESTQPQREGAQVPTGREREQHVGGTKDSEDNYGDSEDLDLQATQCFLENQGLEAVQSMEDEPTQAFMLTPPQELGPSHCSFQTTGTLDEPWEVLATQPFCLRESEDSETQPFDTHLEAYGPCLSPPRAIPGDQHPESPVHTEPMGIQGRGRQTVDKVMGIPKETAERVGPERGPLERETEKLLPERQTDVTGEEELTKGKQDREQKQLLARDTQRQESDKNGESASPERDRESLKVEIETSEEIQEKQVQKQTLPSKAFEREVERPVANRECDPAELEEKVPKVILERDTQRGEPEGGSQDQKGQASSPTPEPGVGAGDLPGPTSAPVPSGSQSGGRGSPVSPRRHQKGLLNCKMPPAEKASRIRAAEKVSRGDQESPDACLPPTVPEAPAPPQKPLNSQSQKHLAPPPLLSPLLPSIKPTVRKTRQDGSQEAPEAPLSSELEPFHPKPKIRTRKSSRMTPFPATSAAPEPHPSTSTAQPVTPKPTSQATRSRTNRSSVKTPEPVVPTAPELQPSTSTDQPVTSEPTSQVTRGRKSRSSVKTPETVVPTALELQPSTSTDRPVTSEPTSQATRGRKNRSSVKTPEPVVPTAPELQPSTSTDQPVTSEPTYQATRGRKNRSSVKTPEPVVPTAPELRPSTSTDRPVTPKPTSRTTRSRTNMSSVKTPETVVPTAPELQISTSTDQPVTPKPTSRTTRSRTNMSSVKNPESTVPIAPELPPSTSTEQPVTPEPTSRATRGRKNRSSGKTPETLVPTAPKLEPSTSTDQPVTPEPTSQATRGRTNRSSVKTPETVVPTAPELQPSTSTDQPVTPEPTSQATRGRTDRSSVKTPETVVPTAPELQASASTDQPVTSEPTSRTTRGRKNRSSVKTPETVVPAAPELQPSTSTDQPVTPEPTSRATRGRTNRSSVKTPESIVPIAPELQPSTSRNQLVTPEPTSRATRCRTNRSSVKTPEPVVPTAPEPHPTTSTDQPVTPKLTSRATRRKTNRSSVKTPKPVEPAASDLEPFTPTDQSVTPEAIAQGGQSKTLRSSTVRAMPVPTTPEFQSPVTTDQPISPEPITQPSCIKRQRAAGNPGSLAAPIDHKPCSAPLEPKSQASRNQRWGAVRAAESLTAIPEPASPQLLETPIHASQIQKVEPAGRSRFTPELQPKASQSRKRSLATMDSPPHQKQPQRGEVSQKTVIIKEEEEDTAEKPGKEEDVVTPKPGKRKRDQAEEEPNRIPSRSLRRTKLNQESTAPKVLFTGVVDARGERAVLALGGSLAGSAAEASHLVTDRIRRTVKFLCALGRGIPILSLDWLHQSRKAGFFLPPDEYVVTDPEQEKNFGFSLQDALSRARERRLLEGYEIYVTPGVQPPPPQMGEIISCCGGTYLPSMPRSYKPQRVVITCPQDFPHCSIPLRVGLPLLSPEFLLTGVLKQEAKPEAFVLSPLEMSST
UniProt P37231: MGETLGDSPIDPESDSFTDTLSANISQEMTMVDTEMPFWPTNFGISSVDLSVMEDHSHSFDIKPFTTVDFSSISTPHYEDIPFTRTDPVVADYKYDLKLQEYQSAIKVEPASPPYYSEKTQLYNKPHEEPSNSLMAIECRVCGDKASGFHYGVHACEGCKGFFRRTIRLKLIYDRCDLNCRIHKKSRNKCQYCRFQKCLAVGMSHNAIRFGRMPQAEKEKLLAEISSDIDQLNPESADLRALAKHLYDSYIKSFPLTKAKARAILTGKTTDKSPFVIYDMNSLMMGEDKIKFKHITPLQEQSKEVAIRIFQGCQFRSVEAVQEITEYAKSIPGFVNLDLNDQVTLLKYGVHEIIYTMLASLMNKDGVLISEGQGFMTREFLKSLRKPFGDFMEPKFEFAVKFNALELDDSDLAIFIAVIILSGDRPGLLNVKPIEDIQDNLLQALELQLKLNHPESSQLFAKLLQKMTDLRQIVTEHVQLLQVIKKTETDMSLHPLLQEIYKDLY

Molecular target: T1, inhibitor of differentiation 3 (ID3), overexpressed from the ID3 overexpression plasmid (UniProt Q02535)
T1 sequence: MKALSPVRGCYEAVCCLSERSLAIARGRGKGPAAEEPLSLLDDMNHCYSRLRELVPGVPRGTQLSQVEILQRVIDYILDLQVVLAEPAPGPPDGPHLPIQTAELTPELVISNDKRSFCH
Test: co-IP; lysate of HCT116-Id3 OE cells mixed overnight at 4 °C with anti-Myc agarose beads (anti-IgG agarose beads as control), washed twice with PBS, western blot with anti-MDC1, anti-PPARγ and anti-ID3

Substance	binding
Mediator of DNA damage checkpoint 1 (MDC1), endogenous (from UniProt Q14676 1-2089)	binds
Peroxisome Proliferator-Activated Receptor γ (PPARγ), endogenous (from UniProt P37231 1-505)	binds
